Results from publication PMC9512495.
These are yes or no findings as the source states them, for the method shown. Binding seen in cells or lysates may run through a third protein. A yes stands for co-enrichment or nearness to the bait. Other partners may have been found.

Amino acid sequences for entries named in this document (tags omitted). Residues count along the entry.
UniProt Q13751, residues 18-1172: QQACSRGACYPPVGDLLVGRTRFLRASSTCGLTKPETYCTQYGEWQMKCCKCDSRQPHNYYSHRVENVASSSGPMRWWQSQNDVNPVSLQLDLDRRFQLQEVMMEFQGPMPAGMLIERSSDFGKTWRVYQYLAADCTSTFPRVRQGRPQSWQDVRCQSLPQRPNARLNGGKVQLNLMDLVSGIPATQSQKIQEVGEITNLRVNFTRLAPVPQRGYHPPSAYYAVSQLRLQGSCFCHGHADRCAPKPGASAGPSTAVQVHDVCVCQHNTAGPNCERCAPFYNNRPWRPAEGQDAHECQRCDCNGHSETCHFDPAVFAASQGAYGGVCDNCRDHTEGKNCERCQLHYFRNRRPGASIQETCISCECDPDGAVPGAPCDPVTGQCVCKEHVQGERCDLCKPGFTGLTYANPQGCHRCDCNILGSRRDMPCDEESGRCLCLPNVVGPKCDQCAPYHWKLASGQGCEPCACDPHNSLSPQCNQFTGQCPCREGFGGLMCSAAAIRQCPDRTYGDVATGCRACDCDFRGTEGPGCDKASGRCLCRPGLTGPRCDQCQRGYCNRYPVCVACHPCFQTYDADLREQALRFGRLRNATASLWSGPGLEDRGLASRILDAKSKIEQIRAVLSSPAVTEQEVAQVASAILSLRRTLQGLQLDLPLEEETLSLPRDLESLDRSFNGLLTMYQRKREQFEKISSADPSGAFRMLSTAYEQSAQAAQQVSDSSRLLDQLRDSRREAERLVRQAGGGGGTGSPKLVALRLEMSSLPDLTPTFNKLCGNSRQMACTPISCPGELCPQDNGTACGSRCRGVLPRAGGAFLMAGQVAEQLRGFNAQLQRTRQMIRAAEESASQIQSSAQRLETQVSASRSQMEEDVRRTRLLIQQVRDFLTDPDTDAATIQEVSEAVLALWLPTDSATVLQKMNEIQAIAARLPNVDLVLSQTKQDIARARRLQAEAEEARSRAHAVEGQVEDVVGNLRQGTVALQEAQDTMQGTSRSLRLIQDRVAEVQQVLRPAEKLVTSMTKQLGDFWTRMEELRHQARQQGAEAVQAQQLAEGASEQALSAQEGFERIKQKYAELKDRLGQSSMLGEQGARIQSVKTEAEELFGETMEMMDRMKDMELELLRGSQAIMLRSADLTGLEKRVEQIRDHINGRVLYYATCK
UniProt P46013: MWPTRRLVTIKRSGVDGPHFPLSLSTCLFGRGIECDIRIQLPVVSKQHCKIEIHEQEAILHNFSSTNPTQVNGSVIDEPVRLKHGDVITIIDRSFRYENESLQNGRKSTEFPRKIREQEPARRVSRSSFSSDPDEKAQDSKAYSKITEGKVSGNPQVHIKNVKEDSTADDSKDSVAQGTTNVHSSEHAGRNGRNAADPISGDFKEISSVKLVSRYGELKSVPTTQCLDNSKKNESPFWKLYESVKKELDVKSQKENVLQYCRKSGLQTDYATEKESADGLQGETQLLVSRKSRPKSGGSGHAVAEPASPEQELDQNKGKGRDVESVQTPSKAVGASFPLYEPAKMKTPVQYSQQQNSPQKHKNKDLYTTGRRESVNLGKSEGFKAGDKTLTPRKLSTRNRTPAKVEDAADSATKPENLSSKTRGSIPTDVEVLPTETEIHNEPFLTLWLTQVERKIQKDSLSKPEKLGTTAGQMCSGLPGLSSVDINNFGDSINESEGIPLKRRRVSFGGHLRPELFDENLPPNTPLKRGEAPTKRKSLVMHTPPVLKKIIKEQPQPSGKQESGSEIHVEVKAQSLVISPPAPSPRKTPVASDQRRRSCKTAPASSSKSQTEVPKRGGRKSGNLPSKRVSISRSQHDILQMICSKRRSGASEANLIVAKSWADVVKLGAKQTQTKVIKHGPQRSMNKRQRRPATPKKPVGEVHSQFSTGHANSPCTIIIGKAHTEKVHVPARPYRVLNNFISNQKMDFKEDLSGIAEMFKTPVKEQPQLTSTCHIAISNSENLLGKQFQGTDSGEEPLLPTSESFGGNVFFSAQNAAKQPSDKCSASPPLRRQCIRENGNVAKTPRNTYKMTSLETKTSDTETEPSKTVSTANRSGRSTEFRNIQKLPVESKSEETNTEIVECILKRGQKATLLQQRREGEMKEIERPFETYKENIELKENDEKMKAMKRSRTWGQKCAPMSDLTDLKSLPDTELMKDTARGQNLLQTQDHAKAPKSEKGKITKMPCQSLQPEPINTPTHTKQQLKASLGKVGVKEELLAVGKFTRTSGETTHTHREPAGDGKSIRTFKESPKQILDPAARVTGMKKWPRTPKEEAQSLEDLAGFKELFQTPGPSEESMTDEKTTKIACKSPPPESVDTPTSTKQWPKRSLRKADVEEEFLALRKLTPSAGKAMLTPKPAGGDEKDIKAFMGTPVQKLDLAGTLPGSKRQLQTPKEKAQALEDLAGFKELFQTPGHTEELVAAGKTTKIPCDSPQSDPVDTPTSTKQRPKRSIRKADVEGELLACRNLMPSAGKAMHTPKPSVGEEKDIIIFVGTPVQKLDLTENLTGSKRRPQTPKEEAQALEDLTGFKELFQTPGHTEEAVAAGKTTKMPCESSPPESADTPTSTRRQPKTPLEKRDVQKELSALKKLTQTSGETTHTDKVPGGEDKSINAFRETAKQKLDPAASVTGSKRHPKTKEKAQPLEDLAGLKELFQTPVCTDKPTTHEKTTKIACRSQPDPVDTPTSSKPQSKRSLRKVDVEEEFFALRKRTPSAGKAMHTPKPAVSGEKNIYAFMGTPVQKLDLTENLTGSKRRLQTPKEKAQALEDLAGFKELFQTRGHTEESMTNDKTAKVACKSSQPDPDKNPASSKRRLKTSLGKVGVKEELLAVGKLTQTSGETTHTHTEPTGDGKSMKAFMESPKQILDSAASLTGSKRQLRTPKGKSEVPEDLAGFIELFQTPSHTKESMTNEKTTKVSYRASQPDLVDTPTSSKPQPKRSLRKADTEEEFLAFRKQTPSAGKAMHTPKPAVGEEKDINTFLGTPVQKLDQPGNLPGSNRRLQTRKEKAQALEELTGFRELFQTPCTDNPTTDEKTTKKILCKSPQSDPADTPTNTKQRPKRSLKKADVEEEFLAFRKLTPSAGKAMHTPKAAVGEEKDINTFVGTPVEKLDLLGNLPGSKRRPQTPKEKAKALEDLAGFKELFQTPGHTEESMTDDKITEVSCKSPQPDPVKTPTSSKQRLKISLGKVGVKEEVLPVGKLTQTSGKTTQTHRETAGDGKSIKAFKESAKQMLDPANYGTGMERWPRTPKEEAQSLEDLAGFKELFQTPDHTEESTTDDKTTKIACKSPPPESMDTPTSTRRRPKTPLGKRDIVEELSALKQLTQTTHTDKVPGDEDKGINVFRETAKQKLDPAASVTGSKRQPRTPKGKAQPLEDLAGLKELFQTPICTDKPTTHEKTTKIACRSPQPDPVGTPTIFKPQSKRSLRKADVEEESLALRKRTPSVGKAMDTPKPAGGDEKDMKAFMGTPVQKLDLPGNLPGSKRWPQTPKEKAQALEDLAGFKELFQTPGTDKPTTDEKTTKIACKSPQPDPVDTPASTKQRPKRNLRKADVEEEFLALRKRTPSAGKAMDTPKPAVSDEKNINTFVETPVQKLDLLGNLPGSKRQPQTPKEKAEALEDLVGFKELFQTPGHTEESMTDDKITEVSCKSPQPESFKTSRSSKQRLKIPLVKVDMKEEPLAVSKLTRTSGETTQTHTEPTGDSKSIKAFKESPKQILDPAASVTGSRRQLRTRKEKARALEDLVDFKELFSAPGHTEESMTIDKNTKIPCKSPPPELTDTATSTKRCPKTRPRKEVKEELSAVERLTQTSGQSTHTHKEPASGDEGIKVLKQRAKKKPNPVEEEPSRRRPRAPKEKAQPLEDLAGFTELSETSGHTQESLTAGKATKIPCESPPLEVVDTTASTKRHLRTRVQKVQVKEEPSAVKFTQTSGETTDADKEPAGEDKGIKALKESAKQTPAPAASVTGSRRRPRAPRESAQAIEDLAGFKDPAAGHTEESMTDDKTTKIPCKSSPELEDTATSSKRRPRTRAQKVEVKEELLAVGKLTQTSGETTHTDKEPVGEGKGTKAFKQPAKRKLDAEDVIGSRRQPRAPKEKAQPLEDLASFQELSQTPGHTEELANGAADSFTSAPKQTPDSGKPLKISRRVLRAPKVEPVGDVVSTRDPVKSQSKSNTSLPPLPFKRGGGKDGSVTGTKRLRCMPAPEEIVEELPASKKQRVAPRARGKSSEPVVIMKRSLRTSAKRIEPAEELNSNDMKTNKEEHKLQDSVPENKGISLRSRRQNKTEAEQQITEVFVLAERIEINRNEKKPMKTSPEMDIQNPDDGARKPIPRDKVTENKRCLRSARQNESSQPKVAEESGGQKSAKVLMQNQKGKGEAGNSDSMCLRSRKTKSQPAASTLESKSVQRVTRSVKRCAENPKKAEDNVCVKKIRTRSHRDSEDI
UniProt P04792: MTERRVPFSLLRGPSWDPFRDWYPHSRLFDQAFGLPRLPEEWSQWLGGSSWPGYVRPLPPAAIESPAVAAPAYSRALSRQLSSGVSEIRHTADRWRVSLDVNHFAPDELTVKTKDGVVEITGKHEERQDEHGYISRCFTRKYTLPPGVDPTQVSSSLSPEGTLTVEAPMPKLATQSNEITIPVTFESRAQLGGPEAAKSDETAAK
UniProt P07355: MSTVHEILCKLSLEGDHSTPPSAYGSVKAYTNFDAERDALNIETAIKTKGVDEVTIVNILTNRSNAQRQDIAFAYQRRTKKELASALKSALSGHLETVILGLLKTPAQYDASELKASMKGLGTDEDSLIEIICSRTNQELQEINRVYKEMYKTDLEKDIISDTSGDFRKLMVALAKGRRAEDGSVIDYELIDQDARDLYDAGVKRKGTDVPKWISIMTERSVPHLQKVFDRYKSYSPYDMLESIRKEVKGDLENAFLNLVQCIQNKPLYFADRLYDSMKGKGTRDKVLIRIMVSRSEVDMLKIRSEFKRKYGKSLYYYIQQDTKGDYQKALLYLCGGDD

T1: alanine aminotransferase 1 (human (endogenous in HepG2)) (UniProt P24298)
T1 sequence: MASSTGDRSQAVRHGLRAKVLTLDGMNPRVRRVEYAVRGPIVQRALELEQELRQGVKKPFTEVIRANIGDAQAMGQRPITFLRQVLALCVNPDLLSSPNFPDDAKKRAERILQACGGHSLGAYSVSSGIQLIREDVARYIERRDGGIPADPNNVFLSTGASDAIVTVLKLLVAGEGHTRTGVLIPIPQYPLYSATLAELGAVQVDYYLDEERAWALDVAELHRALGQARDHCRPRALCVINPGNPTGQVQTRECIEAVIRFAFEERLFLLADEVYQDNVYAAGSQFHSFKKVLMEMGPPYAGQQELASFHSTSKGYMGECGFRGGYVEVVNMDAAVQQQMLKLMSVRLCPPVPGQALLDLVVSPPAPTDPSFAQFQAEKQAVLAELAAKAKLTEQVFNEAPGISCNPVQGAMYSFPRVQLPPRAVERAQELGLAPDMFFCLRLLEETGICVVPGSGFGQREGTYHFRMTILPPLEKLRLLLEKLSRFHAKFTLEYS

B1: epithelial cell adhesion molecule (protein, UniProt P16422 24-314)
chain: QEECVCENYKLAVNCFVNNNRQCQCTSVGAQNTVICSKLAAKCLVMKAEMNGSKLGRRAKPEGALQNNDGLYDPDCDESGLFKAKQCNGTSMCWCVNTAGVRRTDKDTEITCSERVRTYWIIIELKHKAREKPYDSKSLRTALQKEITTRYQLDPKFITSILYENNVITIDLVQNSSQKTQNDVDIADVAYYFEKDVKGESLFHSKKMDLTVNGEQLDLDPGQTLIYYVDEKAPEFSMQGLKAGVIAVIVVVVIAVVAGIVVLVISRKKRMAKYEKAEIKEMGEMHRELNA
B2: protein disulfide-isomerase A6 (protein, UniProt Q15084 20-440)
chain: LYSSSDDVIELTPSNFNREVIQSDSLWLVEFYAPWCGHCQRLTPEWKKAATALKDVVKVGAVDADKHHSLGGQYGVQGFPTIKIFGSNKNRPEDYQGGRTGEAIVDAALSALRQLVKDRLGGRSGGYSSGKQGRSDSSSKKDVIELTDDSFDKNVLDSEDVWMVEFYAPWCGHCKNLEPEWAAAASEVKEQTKGKVKLAAVDATVNQVLASRYGIRGFPTIKIFQKGESPVDYDGGRTRSDIVSRALDLFSDNAPPPELLEIINEDIAKRTCEEHQLCVVAVLPHILDTGAAGRNSYLEVLLKLADKYKKKMWGWLWTEAGAQSELETALGIGGFGYPAMAAINARKMKFALLKGSFSEQGINEFLRELSFGRGSTAPVGGGAFPTIVEREPWDGRDGELPVEDDIDLSDVELDDLGKDEL
B3: apoptosis-stimulating protein 2 of p53 (protein, UniProt Q13625 1-1128)
chain: MMPMFLTVYLSNNEQHFTEVPVTPETICRDVVDLCKEPGESDCHLAEVWCGSERPVADNERMFDVLQRFGSQRNEVRFFLRHERPPGRDIVSGPRSQDPSLKRNGVKVPGEYRRKENGVNSPRMDLTLAELQEMASRQQQQIEAQQQLLATKEQRLKFLKQQDQRQQQQVAEQEKLKRLKEIAENQEAKLKKVRALKGHVEQKRLSNGKLVEEIEQMNNLFQQKQRELVLAVSKVEELTRQLEMLKNGRIDSHHDNQSAVAELDRLYKELQLRNKLNQEQNAKLQQQRECLNKRNSEVAVMDKRVNELRDRLWKKKAALQQKENLPVSSDGNLPQQAASAPSRVAAVGPYIQSSTMPRMPSRPELLVKPALPDGSLVIQASEGPMKIQTLPNMRSGAASQTKGSKIHPVGPDWSPSNADLFPSQGSASVPQSTGNALDQVDDGEVPLREKEKKVRPFSMFDAVDQSNAPPSFGTLRKNQSSEDILRDAQVANKNVAKVPPPVPTKPKQINLPYFGQTNQPPSDIKPDGSSQQLSTVVPSMGTKPKPAGQQPRVLLSPSIPSVGQDQTLSPGSKQESPPAAAVRPFTPQPSKDTLLPPFRKPQTVAASSIYSMYTQQQAPGKNFQQAVQSALTKTHTRGPHFSSVYGKPVIAAAQNQQQHPENIYSNSQGKPGSPEPETEPVSSVQENHENERIPRPLSPTKLLPFLSNPYRNQSDADLEALRKKLSNAPRPLKKRSSITEPEGPNGPNIQKLLYQRTTIAAMETISVPSYPSKSASVTASSESPVEIQNPYLHVEPEKEVVSLVPESLSPEDVGNASTENSDMPAPSPGLDYEPEGVPDNSPNLQNNPEEPNPEAPHVLDVYLEEYPPYPPPPYPSGEPEGPGEDSVSMRPPEITGQVSLPPGKRTNLRKTGSERIAHGMRVKFNPLALLLDSSLEGEFDLVQRIIYEVDDPSLPNDEGITALHNAVCAGHTEIVKFLVQFGVNVNAADSDGWTPLHCAASCNNVQVCKFLVESGAAVFAMTYSDMQTAADKCEEMEEGYTQCSQFLYGVQEKMGIMNKGVIYALWDYEPQNDDELPMKEGDCMTIIHREDEDEIEWWWARLNDKEGYVPRNLLGLYPRIKPRQRSLA

These molecules were tested against T1, alanine aminotransferase 1 (human (endogenous in HepG2)) (assay: affinity purification with mass spectrometry; co-IP from lysates of HepG2 cells transfected with ALT1 siRNA or negative control siRNA, eluted proteins iTRAQ-labelled (113-115 control, 116-118 ALT1 siRNA), TripleTOF 5600+ LC/MS; differentially expressed proteins taken as ALT1-interacting).

binding, binds:
laminin subunit beta-3 (from UniProt Q13751 18-1172)
KI67 (from UniProt P46013 1-3256)
heat shock protein beta-1 (from UniProt P04792 1-205)
annexin A2 (from UniProt P07355 1-339)
B1
B2
B3
